Screening data, single-dose tests

Protein sequences, listed by entry. Tags and fused reporters are not part of them. Residues count along the entry.
UniProt P9WPC5, whole entry: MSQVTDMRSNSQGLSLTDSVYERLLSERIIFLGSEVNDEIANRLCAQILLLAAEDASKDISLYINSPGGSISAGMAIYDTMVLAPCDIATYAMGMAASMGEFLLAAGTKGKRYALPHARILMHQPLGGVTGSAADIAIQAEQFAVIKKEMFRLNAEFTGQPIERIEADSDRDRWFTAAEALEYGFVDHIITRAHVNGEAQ
UniProt P9WPC3, whole entry partner: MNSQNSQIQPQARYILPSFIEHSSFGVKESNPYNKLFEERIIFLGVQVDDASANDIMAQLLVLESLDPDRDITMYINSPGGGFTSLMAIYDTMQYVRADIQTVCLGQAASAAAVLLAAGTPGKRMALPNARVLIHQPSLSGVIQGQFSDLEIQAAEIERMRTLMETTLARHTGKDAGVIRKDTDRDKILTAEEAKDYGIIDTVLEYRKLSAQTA
UniProt P9WFT3, whole entry: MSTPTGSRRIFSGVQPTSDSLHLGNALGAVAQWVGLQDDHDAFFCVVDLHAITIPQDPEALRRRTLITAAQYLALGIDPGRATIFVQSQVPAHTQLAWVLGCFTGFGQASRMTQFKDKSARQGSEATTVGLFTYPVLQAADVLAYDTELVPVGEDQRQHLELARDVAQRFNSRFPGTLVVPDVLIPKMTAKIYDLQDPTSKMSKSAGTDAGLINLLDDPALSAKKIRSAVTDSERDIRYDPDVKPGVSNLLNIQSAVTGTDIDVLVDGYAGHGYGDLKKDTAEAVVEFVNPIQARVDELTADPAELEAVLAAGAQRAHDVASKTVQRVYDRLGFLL
UniProt Q8IDJ8, 1-583: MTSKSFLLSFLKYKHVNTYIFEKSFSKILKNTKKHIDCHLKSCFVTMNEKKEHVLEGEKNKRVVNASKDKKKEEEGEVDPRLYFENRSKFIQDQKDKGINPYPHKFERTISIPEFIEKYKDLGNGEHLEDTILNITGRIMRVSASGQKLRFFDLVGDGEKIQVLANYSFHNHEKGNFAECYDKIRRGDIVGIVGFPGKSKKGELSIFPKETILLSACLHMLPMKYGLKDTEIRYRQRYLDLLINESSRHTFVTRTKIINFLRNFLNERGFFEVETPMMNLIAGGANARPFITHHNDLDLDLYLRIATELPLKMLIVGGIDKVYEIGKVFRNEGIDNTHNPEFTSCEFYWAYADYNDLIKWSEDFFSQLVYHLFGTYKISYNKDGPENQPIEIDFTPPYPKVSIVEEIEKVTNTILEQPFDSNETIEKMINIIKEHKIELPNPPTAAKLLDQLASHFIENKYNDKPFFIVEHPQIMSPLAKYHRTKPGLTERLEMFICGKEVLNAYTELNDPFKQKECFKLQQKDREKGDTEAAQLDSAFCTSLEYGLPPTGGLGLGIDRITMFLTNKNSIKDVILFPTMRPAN

Source: ChEMBL document CHEMBL3988442, “University of Dundee, Small-Polar-MMV Screening Library” (2021).

ClpP1P2: 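ClpP1P2, Mycobacterium tuberculosis (UniProt P9WPC5 and UniProt P9WPC3). Protease assay of ClpP1P2, read by the AMC dye that it sets free. Tested at 50 µM. Direction is inferred from only a few compounds that gave an IC50; most scored high, so higher reads as stronger inhibition. Most other retested compounds had strongly negative values. Size under these conditions: about 69,000 compounds, about 10 of them at 50% or above in at least one test.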
MtTrpRS: 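Tryptophan-tRNA ligase, Mycobacterium tuberculosis (UniProt P9WFT3). Enzyme assay of tryptophanyl-tRNA synthetase; the read-out is not stated. Tested at 10 µM. Higher most likely means stronger inhibition; the record gives no direction and few retests gave an IC50. Size under these conditions: about 65,000 compounds, about 64 of them at 50% or above in at least one test.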
PfKRS1: 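Enzyme assay of the cytosolic lysyl-tRNA synthetase in 384-well plates, read by luminescence. Target: Lysine-tRNA ligase, Plasmodium falciparum 3D7 (UniProt Q8IDJ8). Concentration: 30 µM. Higher reads as stronger inhibition, judged from the few compounds that gave an IC50. Size under these conditions: about 69,000 compounds, about 49 of them at 50% or above in at least one test.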

Results are given as percent effect.
How 0% and 100% were set is not recorded. Most values in the screen are low, and negative values occur.
Compounds were drawn at random from those tested, without regard to their results.
A dash means the value is not listed here; it may have been measured.

compound | ClpP1P2 | MtTrpRS | PfKRS1
Cn1nnc2c(N3CC(C(=O)NCCC4=CCCCC4)C3)ncnc21 | -12.69% | 0.8909% | -0.6644%
CCOC(=O)N1CCN(c2nc(NCCCO)c3ccccc3n2)CC1 | 5.147% | 1.005% | 1.551%
O=C(O)[C@@H]1CN(C(=O)Cc2ccccc2Cl)C[C@H]1C1CC1 | 5.142% | 1.909% | 5.641%
O=C(CCNc1ncccn1)NCCc1ccc(Cl)s1 | 7.759% | 1.349% | 3.242%
O=C(c1cnccn1)N1C[C@@H](OCc2cccnc2)[C@H]2OCCC[C@H]21 | 5.942% | -3.836% | -1.481%
CC(=O)N(Cc1ncc(C)o1)C1CCN(Cc2cc(C)on2)C1 (stereo not given) | -55.43% | -3.636% | 1.3%
CCOc1ccccc1-c1noc(CN2CC(n3cccn3)C2)n1 | 8.6% | -0.7037% | 3.286%
Cc1nn(-c2ccccc2)nc1C(=O)N1CCCC1c1cnn(C)c1 (stereo not given) | 4.221% | -1.652% | -2.765%
O=C(NC1(C(=O)O)CCCCC1)C1Cc2ccccc2O1 (stereo not given) | 2.613% | 1.83% | -1.571%
O=C(CSc1nncs1)N1CCN(Cc2ccc(Cl)s2)CC1 | 1.455% | -1.782% | 0.8694%
OCCN1CCC(c2csc(Nc3cnccn3)n2)CC1 | -6.388% | 16.72% | -1.912%
CCOC(=O)[C@@H]1[C@H]2CN(C(=O)OC)CCN2C[C@H]1c1ccccc1 | -20.47% | - | 1.5%
COc1ccc(CN2CC[C@H](NC(C)=O)[C@@H](O)CC2)c(OC)c1 | -3.838% | -0.4181% | 4.157%
CC(=O)N1CCN(c2cc(C3CCNCC3)ccn2)CC1 | -5.923% | -8.973% | 2.26%
CN1CCC(N(C)C[C@H]2CC[C@@H](Cc3ccc4occc4c3)O2)CC1 | -2.814% | 1.911% | 7.277%
CC(C)(C)OC(=O)CNC(=O)CCc1nnc(-c2ccsc2)o1 | -6.216% | 3.397% | 4.246%
COc1ncccc1CN1CC[C@]2(C[C@@H](OCc3ccccn3)CO2)C1 | -6.223% | 0.8299% | 1.005%
CC(=O)N1CCCC(c2ncncc2-c2ccncc2)C1 (stereo not given) | -5.768% | - | 1.027%
Cc1ccc(C)c(C(=O)CN2C(=O)c3ccccc3CS2(=O)=O)c1 | -1.061% | -0.5418% | 2.012%
COc1ccc(CC(=O)N2CCC(c3nncn3C)CC2)cc1F | -7.059% | -3.211% | 1.925%
Cc1csc(C2CCCCN2C(=O)c2cn[nH]c2C)n1 (stereo not given) | 6.722% | 5.511% | -1.84%
CC(=O)N1CCN(C(=O)Nc2ccccc2)CC2(CC(=O)N(C)C2)C1 (stereo not given) | 8.469% | 2.344% | -3.35%
O=C(C[C@@H]1COC[C@H]2CN(CC3CC3)C[C@@H]12)NCc1cccnc1 | 1.344% | - | 1.06%
CC(=O)N1CCn2cc(CNC(=O)c3cccn3C)nc2C1 | 8.667% | 0% | 9.044%
CCC(=O)N1CCN(c2ccc(C(=O)OC)cc2)CC1C (stereo not given) | -0.4174% | 0.4566% | 3.706%
Cc1cc(F)ccc1S(=O)(=O)NCc1cccc(C(=O)N2CCCC2)c1 | 7.529% | -5.708% | 8.014%
CCOc1cccc(COC(=O)c2cscn2)n1 | -2.759% | -5.573% | 2.261%
CN(C)S(=O)(=O)CCCOc1cccc(-n2ccnc2)c1 | 2.589% | -0.2244% | 2.373%
CC(Cc1c(F)cccc1F)NC(=O)CSCC(N)=O (stereo not given) | -0.7641% | -2.677% | -2.456%
Cc1c(CN2C[C@H](O)[C@@H](N3CCOCC3)C2)[nH]c2ccc(F)cc12 | -11.33% | -4.595% | -4.805%
c1ccc(-c2ncc(CN3CCCCC3CCn3cccn3)cn2)nc1 (stereo not given) | 0.1249% | -7.545% | -1.342%
CC(C)NC(=O)[C@@H]1CN(Cc2nccs2)C[C@H]2OCC[C@H]21 | 29.56% | 7.809% | -8.237%
CC(=O)Nc1nc(SCc2ccc3c(c2)OCO3)ns1 | 0.2065% | -1.48% | 9.02%
N[C@@H]1c2ccccc2C2(CCN(C(=O)c3ccc(=O)[nH]c3)CC2)[C@H]1O | -20.04% | -0.1649% | 1.404%
Cc1ccccc1CNC(=O)CN1CCCC(Cc2nccn2C)C1 (stereo not given) | -10.89% | -9.918% | 2.417%
Fc1ccc(OCCCNC2=NCCN2)cc1 | 4.98% | 1.665% | 1.42%
CNC(=O)CN1CCC(OCc2ccc(Cl)c(Cl)c2)CC1 | -1.839% | -1.584% | 2.779%
Cc1ccc(C)c(OCCN(C)C(=O)CCc2cn[nH]c2)c1 | 1.535% | 5.003% | 5.157%
CN(C)CC(=O)N1CCC2(CC1)Cc1ccccc1CN(C)C2=O | -9.048% | - | 0.7329%
O=C(NCCc1ccc(F)cc1)NCC(O)c1cccc(F)c1 (stereo not given) | 19.81% | 9.039% | -2.659%
Cc1nn(CCO)c(C)c1CNC1CCc2c(Cl)cccc21 (stereo not given) | -12.06% | 1.954% | 4.583%
N#Cc1ccccc1CC1CCCS(=O)(=O)C1 (stereo not given) | 1.643% | 6.647% | -0.1017%
COc1ccc(Cl)cc1NCC(=O)NCCNc1ncccn1 | -9.727% | -3.625% | 7.102%
O=S(=O)(c1cccnc1)N1CCN(Cc2nc(-c3ccco3)cs2)CC1 | -12.4% | 1.503% | 9.301%
CCN(Cc1ccccc1Cl)Cn1nc(C)c2c(C)onc2c1=O | 7.799% | 1.278% | 0.2893%
CCN(CC)Cc1ccc(CNC(=O)C(C)(C)n2cc(Br)cn2)cc1 | 11.77% | 4.046% | 0.8986%
Cc1cc(C(=O)Nc2cnn(CC(F)(F)F)c2)nc(N2CCOCC2)n1 | 8.73% | 1.684% | 2.774%
COc1cccc(COCC(=O)N2CCCC2Cn2cccn2)c1 (stereo not given) | -41.72% | -1.755% | 1.612%
N#CC1(C(=O)N2CCC(Nc3cccnn3)CC2)CCCCC1 | -9.176% | -6.972% | 7.506%
COc1cccc(CN2C[C@@H]3COC[C@]3(COCc3ccccn3)C2)c1 | 14.42% | 0.2292% | -0.3401%
Cc1ccsc1C(Cc1ccccc1)NC(=O)CSCC(N)=O (stereo not given) | -10.84% | 1.815% | 4.463%
CC(C)(C)c1nc(CN2CCCC2CCc2ccccc2)no1 (stereo not given) | -4.366% | -2.958% | -5.275%
COCC(=O)Nc1ccccc1Sc1c(C)n[nH]c1C | -11.78% | 3.205% | 4.853%
O=C(C1CCC1)N1C[C@@H](c2ccsc2)[C@@H]2CN(C3CCCC3)CC[C@@H]21 | -12.07% | 1.483% | 1.175%
CC(C)(O)c1cn(C2CCN(C(=O)CCc3ccncc3)CC2)nn1 | -26.92% | -2.171% | 4.654%
COc1ccc(C(=O)Nc2cc(CC(C)C)nn2C)cc1 | -7.672% | 11.98% | -2.459%
CCc1noc(C2CC(=O)N(CCN(C)C)C2)n1 (stereo not given) | 2.009% | -4.697% | 0.8049%
CC(C)(C)C(=O)N1CCCC1c1ccc(C(=O)N2CCOCC2)s1 (stereo not given) | -9.395% | 11.47% | -4.182%
Cc1ccc(CN(C)C(=O)NCC(=O)NC(C)(C)C)s1 | 2.598% | 1.343% | 3.457%
Cc1ccc(C(=O)N2C[C@@H](N3CCN(C)CC3)[C@H]3OCCC[C@H]32)cn1 | 5.02% | - | 3.271%
CC(=O)N1C[C@H]2C3(CCN(S(C)(=O)=O)CC3)CC[C@@]2(C(=O)N(C)C)C1 | 1.549% | -5.853% | 1.112%
Cc1nc(C2CCCN2CCS(C)(=O)=O)no1 (stereo not given) | -2.019% | 3.327% | -2.951%
CCC(Cn1ccnc1)n1cnc2scc(C)c2c1=O (stereo not given) | -15.9% | 0.9709% | -2.105%
CCN1CCN(C)C2(CCN(C(=O)CC(F)(F)F)CC2)C1=O | -3.539% | - | 2.495%
CC1(C)Cc2cc(-c3cncn3CCNC3CCS(=O)(=O)C3)ccc2O1 (stereo not given) | -19.52% | -2.378% | 4.257%
O=C(NCCc1c[nH]cn1)C1CCCN(Cc2ccco2)C1 (stereo not given) | 0.839% | -5.093% | 0.178%
COc1ccc(NC(=O)c2ccoc2C)c(N2CCN(C(C)=O)CC2)n1 | 12.79% | 0.6353% | 11.64%
O=C(Cc1csc(-c2ccco2)n1)N1CCN(CCO)CC1 | 2.736% | -3.996% | -2.879%
O=C1OCCC1N1CCN(c2ccccn2)CC1 (stereo not given) | 11.69% | 1.852% | 7.535%
Cc1cccc(N2CC[C@H]3[C@H](CO[C@@H]3CN(C)Cc3ccco3)C2)n1 | -11.98% | - | 5.161%
O=C(O)COc1ccc(CN2CCCC(Cc3cccnc3)C2)cc1 (stereo not given) | -13.48% | -5.708% | 0.4836%
CSc1cccc(CN2CCC(CCC(=O)NCCN(C)C)CC2)c1 | -19% | -0.07139% | 0.1447%
CCc1noc(C(C)N2CCCN(Cc3noc(C4CC4)n3)CC2)n1 (stereo not given) | -6.948% | -1.961% | 0.5922%

Some entries from above, unchanged:

compound,ClpP1P2,MtTrpRS,PfKRS1
Cc1ccc(CN(C)C(=O)NCC(=O)NC(C)(C)C)s1,2.598%,1.343%,3.457%
O=C(CSc1nncs1)N1CCN(Cc2ccc(Cl)s2)CC1,1.455%,-1.782%,0.8694%
O=C(NC1(C(=O)O)CCCCC1)C1Cc2ccccc2O1 (stereo not given),2.613%,1.83%,-1.571%
Cn1nnc2c(N3CC(C(=O)NCCC4=CCCCC4)C3)ncnc21,-12.69%,0.8909%,-0.6644%